At least one structure is not confirmed: it was looked up by name or label, or the drawing left a doubt.
Tests used:
[1] = test system: 4L;C* nBMT mice; test: Immunofluorescence staining for GFP+ migrated cells and CD68+ cells in brain after nBMT; assay type: in vivo, mouse
[2] = test system: 4L;C* mice; test: GFAP immunohistochemistry for activated astrocytes in brain; settings: Day 55
[3] = test system: 4L;C* mice; test: Gait analysis (paw print test); assay type: in vivo, mouse; settings: 4L;C* mice at age ~50 days, 6 mg/kg i.p. every 2 days
[4] = test system: 4L;C* mice; test: FACS analysis of microglia and leukocyte populations in brain; assay type: in vivo, mouse; settings: brain hemispheres
Source text: Brain inflammation invariably results in a reshaping of the blood-borne leukocyte populations inhabiting the CNS. To elucidate the changes of resident immune cells (i.e., microglial cells) and infiltrated leukocytes in nGD brain and the effect rapamycin has on activation of immune cells and infiltration, flow cytometry was used to analyze different leukocyte populations in brain parenchyma, including CD45^+ cells, microglia, myeloid, lymphoid, macrophage and T cells. […] The hemispheres of the brain were separated, minced, and digested by incubation with […] collagenase IV for 30 min at 37° C. The resulting cell suspensions were then fractionated by density gradient separation using 25% Percoll® gradients at 520×g for 20 minutes. […] After removing myelin and top suspension layer, pelleted cells collected were then subjected to multicolor (5) fluorescence-activated cell sorting analysis (FACS) by co-staining with multiple antibodies that conjugated with various fluorochromes to identify microglia and subpopulations of leukocytes. FIG. 10A. […] FIG. 10B. […] FIG. 10B. […] FIG. 10B.
The frequency of microglia (CD45^intermediateCD11b^high) was increased in buffer-treated 4L;C* mice (1.9 fold) and decreased in rapamycin-treated 4L;C* mice (1.3-fold), which indicates reduced microgliosis in nGD brain. FIG. 10B. […] FIGS. 10C and 10D.

[5] = test system: 4L;C* mice; test: CD68 immunohistochemistry for activated microglia/macrophage in brain and spinal cord; assay type: in vivo, mouse; settings: cerebellar DCN region, Day 55
Source text: CD68, a classic marker of activated microglia/macrophage (Korzhevskii et al., (2016) Neurosci Behav Physi 46, 284-290), was used to determine CNS inflammation by immunohistochemistry staining. […] FIG. 6A.

[6] = test system: 4L;C* mice; test: Hindlimb clasping assessment; assay type: in vivo, mouse; settings: 4L;C* mice at 50 days of age, score 0-3, vs buffer-treated
[7] = test system: LC3B-II; test: Western blot of LC3B-II in midbrain tissue; assay type: in vivo, mouse; settings: Day 55, compared with WT mice
[8] = test system: Mac 2; test: Western blot of Mac 2 in midbrain tissue; assay type: in vivo, mouse; settings: Day 55, vs buffer-treated
[9] = test system: 4L;C* nBMT mice; test: FACS analysis of donor-derived GFP+ migrated cells in brain after nBMT; assay type: in vivo, mouse
Experimental: Briefly, mice that express enhanced green fluorescent protein (GFP; C57BL/6 GFP/CD45.1) were used as bone marrow donors. Low-density bone marrow (LDBM) cells were harvested by flushing the hind-leg bones with Dulbecco's modified Eagle's medium (DMEM) containing 2% fetal calf serum (FCS) and 50 U penicillin/0.05 mg/mL streptomycin using a 23 G needle. The cells were passed through a 100 μm cell strainer. LDBM cells were isolated after density gradient centrifugation with Histopaque-1083. Viable cells were counted with trypan blue dye and resuspended in PBS containing 30 U/mL heparin. The recipient pups (˜3 days old of 4L;C or 4L;norm) were subjected to myelosuppressive conditioning with the chemotherapeutic agent busulfan by intraperitoneal injection at 20 mg/kg. Twenty-four hours later, the 4L;C and 4L;norm recipient pups then received about 1×10^6 GPF+ donor cells via injection into super-facial temple vein (nBMT). 4L;C nBMT mice were then given an i.p. injection of rapamycin or buffer every other days starting at 21 days of age. […] Multicolor FACS analysis was conducted as described above to analyze contribution of GFP+ migrated cells in microglia and subpopulations of leukocytes. FIG. 11A. The frequency of donor-derived GFP+ cells among different leukocyte populations in brain parenchyma was quantified, including CD45^+ cells, microglia, myeloid, lymphoid, macrophage and T cells. […]

[10] = test system: 4L;C* mice; test: Repeated open-field test; assay type: in vivo, mouse; settings: 4L;C* mice at 53-54 days of age, vs buffer-treated
[11] = test system: 4L;C* mice; test: Fluoro-Jade C (FJC) staining for degenerating neurons in brain cryosections; settings: cerebellar DCN, Day 55
[12] = test system: inflammatory mediators; test: RT-qPCR of inflammatory mediator mRNA in midbrain tissue; assay type: in vivo, mouse
Experimental: Vitner et al., (2012) Brain. 135 (Pt 6):1724-35; Dasgupta et al., (2015) Hum Mol Genet. 15; 24(24):7031-48. The highly activated microglia/and astrocyte are the main source of multiple inflammatory mediators in brain. […] The isolated mRNA was subjected to quantitative reverse transcription PCR (RT-qPCR) analysis using oligos directed toward inflammatory mediator genes of interest, including cytokine, chemokine, and inflammation-related receptors. Specifically, RT-qPCR analysis was performed to detect mRNA expression levels of the following genes: tumor necrosis factor (TNF)-alpha, interleukin (IL)-1-beta (IL-1β), IL-6, IL-17A, transforming growth factor beta (TGF-β), chemokine ligand (CCL) 5 (CCL5), CCL2, CCL22 chemokine (C-X-C motif) ligand 2 (CXCL2), intercellular adhesion molecule 1 (ICAM1), tumor necrosis factor receptor 1 (TNFR1), Cluster of Differentiation 86 (CD86), EGF-like module-containing mucin-like hormone receptor-like 1 (F4/80), component 5 (C5), and complement component 5a receptor 1 (C5AR1).

[13] = Day 55, buffer-treated 3.8-fold

SMILES: CO[C@H]1C[C@@H]2CC[C@@H](C)[C@@](O)(O2)C(=O)C(=O)N2CCCC[C@H]2C(=O)O[C@H]([C@H](C)C[C@@H]2CC[C@@H](O)[C@H](OC)C2)CC(=O)[C@H](C)/C=C(\C)[C@@H](O)[C@@H](OC)C(=O)[C@H](C)C[C@H](C)/C=C/C=C/C=C/1C [rapamycin]
- activated microglia (CD68+ only) ([1]; across the brain): decreased
- migrated macrophages (GFP+CD68+) ([1]; across the brain): decreased
- GFP+ migrated cells (immunofluorescence) ([1]; brain stem, midbrain and cerebellar DCN region): mildly decreased
- GFP+ migrated cells (immunofluorescence) ([1]; thalamus region): dramatically reduced
- GFAP signal ([2]; cortex): normalized
- GFAP signal ([2]; thalamus and cerebellar DCN): no reduction
- hindlimb base width [3]: normalization
- overlap (distance between front and hind footprints) [3]: significant reduction
- T cell population in brain [4]: normalization
- lymphoid population in brain [4]: normalization
- mean fluorescence intensity (MFI) of CD11b in microglia [4]: increased
- percentage of myeloid cells in brain ([4]; buffer-treated 8.6-fold): markedly decreased
- percentage of macrophages in brain ([4]; buffer-treated 10.9-fold): markedly decreased
- CD68+ area [5]: mild decrease
- hindlimb clasping score [6]: significantly decreased
- LC3B-II levels normalized to β-actin [7]: comparable to those of WT mice
- Mac2 protein [8]: significantly reduced
- CD11b intensity of overall microglia population ([9]; brain, 55 days of age): normalized
- amount of GFP+ migrated CD45+ cells, myeloid, lymphoid, macrophage and T cell populations ([9]; compared with 4L;norm nBMT mice): normalized
- exploratory (horizontal) activity [10]: normalization
- habitual (grooming) activity [10]: normalization
- degenerating neuronal signals (FJC) [11]: minor change
- C5aR1 expression level ([12]; Day 55): significantly reduced
- C5 expression level ([12]; Day 55): significantly reduced
- IL-17A mRNA expression ([12]; Day 55): normalized
- transforming growth factor-β mRNA expression ([12]; Day 55): normalized
- TNF receptors 1 mRNA expression ([12]; Day 55, buffer-treated 2.8 fold increase): significantly decreased
- F4/80 mRNA expression ([12]; Day 55, buffer-treated 3.5-fold): significantly reduced
- CD68 mRNA expression [12, 13]: significantly reduced
- ICAM-1 mRNA expression [12, 13]: decreased
- IL-6 mRNA expression ([12]; Day 55, buffer-treated 4.2-fold): reduced
- CCL22 mRNA expression ([12]; Day 55, buffer-treated 4.7-fold): reduced or even normalized
- IL-1β mRNA expression ([12]; Day 55, buffer-treated 6.2-fold): reduced
- CXCL2 mRNA expression ([12]; Day 55, buffer-treated 6.6-fold): reduced or even normalized
- TNF-α mRNA expression ([12]; Day 55, buffer-treated 21.6 fold increase): significantly decreased
